Measurements as given in article PMC8406308.
No constants are given. Whether binding was seen depends on the method and setting. In cells and extracts the contact can be indirect. Some binding calls cover weakened binding; strength is not graded here. For some assays here: Tags and fused reporters may be left off the sequences shown.

Amino acid sequences for entries named in this document (tags omitted).
UniProt P63283: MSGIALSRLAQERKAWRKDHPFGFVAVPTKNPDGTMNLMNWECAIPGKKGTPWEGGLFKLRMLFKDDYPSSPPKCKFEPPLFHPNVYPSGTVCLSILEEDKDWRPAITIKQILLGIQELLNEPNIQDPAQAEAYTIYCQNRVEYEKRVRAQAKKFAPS
UniProt P63279: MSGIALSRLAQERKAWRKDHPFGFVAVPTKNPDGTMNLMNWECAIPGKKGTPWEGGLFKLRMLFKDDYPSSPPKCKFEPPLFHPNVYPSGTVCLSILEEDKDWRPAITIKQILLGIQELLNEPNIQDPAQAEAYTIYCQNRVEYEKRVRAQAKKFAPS

Assays:
[1] = target: T1, endogenous API5 (apoptosis inhibitor 5) of DF-1 cells (chicken (endogenous in DF-1)) (UniProt Q5ZMW3); experiment: co-IP; lysates of DF-1 cells precipitated with anti-API5 mouse MAb (anti-IgG as control); blot with anti-API5 and anti-UBC9 rabbit pAbs
T1 sequence: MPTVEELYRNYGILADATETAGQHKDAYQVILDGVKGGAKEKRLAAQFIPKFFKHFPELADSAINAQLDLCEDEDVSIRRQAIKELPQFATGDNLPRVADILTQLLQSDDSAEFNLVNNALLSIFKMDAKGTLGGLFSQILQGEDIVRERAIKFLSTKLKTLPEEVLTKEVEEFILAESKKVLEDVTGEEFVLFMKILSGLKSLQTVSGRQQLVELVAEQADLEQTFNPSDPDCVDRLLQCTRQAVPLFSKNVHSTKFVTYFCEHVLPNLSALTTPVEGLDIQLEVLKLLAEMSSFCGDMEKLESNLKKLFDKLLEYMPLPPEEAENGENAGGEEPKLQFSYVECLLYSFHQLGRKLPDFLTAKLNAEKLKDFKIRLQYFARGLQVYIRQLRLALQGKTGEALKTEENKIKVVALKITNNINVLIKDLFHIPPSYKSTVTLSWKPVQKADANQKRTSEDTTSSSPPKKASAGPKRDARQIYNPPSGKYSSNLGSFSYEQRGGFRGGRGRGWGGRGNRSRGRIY

[2] = target: T2, Flag-API5 (apoptosis inhibitor 5) (Gallus (chicken)) (UniProt Q5ZMW3); experiment: co-IP; HEK293T cells cotransfected for 48 h, lysed in NP-40 buffer; precipitated with anti-Flag, anti-Myc or anti-GFP mouse MAb and protein A/G agarose at 4°C; Western blot
T2 sequence: T1 sequence

Substance | binding [1] | binding [2]
endogenous UBC9 of DF-1 cells (from UniProt P63283 1-158) (enzyme) | binds | –
pEGFP-UBC9 (from UniProt P63279 1-158) (enzyme) | – | binds
